In paper PMC10367561:
Results are given in words; binding and its absence hold for the method and conditions named. Binding seen in cells or lysates may run through a third protein. Some binding calls cover weakened binding; strength is not graded here. For some assays here: Tags and fused reporters may be left off the sequences shown.

By UniProt entry, the sequences of proteins in these tests, tags left out. Where a name states a change or a piece, a line headed by the entry shows the natural chain unless it says otherwise.
UniProt Q9HAU4: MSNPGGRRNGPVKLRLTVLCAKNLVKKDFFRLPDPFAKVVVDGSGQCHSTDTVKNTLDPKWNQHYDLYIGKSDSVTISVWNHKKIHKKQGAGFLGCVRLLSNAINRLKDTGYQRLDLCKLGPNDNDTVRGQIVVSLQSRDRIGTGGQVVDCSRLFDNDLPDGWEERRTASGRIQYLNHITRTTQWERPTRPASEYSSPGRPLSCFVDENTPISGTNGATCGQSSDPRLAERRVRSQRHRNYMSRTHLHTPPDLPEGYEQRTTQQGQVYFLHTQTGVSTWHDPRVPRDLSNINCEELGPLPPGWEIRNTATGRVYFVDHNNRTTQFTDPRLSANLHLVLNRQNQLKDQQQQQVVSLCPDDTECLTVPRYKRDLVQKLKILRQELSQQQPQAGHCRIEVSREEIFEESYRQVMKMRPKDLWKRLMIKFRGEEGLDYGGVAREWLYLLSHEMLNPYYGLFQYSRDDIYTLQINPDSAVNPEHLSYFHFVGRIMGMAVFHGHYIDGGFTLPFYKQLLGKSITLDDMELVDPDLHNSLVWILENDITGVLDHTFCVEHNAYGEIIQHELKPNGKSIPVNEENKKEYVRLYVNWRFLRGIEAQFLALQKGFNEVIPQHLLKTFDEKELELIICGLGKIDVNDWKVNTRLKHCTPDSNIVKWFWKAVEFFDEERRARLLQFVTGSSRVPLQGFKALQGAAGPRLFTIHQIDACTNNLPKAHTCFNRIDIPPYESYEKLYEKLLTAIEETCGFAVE
UniProt P15923: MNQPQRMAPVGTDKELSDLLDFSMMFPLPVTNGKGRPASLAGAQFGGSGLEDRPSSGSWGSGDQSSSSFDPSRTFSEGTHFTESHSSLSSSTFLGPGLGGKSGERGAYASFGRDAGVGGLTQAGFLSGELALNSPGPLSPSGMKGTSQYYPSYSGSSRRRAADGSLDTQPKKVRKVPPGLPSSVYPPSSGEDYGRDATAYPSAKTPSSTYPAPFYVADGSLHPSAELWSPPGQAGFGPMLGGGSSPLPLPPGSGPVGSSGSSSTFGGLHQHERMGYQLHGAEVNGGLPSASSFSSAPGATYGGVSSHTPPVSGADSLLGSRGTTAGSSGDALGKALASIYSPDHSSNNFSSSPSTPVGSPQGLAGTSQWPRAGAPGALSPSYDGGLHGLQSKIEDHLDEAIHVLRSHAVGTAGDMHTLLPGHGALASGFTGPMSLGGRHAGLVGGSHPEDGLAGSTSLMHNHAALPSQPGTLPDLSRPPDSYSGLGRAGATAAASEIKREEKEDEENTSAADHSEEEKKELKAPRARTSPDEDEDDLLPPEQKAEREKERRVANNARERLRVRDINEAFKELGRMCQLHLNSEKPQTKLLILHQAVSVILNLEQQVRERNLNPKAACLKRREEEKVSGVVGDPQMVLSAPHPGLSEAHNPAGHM

Tests used:
[1] = target: T1, ID2, endogenous (human (endogenous in A549 and H460)) (UniProt Q02363); test: co-IP; endogenous proteins, A549 and H460 cells; IP and western blot; the precipitating antibody is not given
T1 sequence: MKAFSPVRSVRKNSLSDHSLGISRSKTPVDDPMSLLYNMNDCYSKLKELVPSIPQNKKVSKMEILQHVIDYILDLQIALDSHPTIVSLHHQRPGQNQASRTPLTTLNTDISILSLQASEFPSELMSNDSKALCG

[2] = target: T2, GFP-tagged full-length human ID2 (inhibitor of DNA binding 2) (human) (UniProt Q02363); test: co-IP; cells co-transfected with Flag-SMURF2 (or its truncated fragments) and ID2 (GFP-ID2) plasmids, HEK293T and A549; IP with anti-Flag or anti-ID2 antibody; IP lysis buffer 0.025 M Tris, 0.15 M NaCl, 0.001 M EDTA, 1% NP-40, 5% glycerol; overnight at 4°C; western blot
T2 sequence: T1 sequence

[3] = target: T1, ID2, endogenous (human (endogenous in A549 and H460)); test: co-IP; endogenous proteins, A549 cells; IP with anti-SMURF2 or anti-ID2 antibody; western blot
[4] = target: T1, ID2, endogenous (human (endogenous in A549 and H460)); test: proximity ligation; Duolink In situ Red kit, A549 cells; anti-SMURF2 (rabbit) and anti-ID2 (mouse); signal means a distance smaller than 40 nm
[5] = target: Flag-tagged SMURF2 (SMAD specific E3 ubiquitin protein ligase 2) (human) (UniProt Q9HAU4); test: co-IP; cells co-transfected with Flag-SMURF2 (or its truncated fragments) and ID2 (GFP-ID2) plasmids, HEK293T and A549; IP with anti-Flag or anti-ID2 antibody; IP lysis buffer 0.025 M Tris, 0.15 M NaCl, 0.001 M EDTA, 1% NP-40, 5% glycerol; overnight at 4°C; western blot
[6] = target: HECT domain of SMURF2 (Flag-tagged truncated fragment) (human) (UniProt Q9HAU4); test: as above
[7] = target: SMURF2, endogenous (human (endogenous in A549)) (UniProt Q9HAU4); test: co-IP; endogenous proteins, A549 cells; IP with anti-SMURF2 or anti-ID2 antibody; western blot

## E2A, endogenous (from UniProt P15923 1-654)
[1]
  binding: binds

## Flag-tagged SMURF2 (SMAD specific E3 ubiquitin protein ligase 2) (from UniProt Q9HAU4 1-748) (enzyme)
[2]
  binding: binds

## HECT domain of SMURF2 (Flag-tagged truncated fragment) (from UniProt Q9HAU4 366-748) (domain or fragment)
[2]
  binding: binds

## SMURF2, endogenous (from UniProt Q9HAU4 1-748) (enzyme)
[3]
  binding: binds
[4]
  binding: binds

B1: GFP-tagged full-length human ID2 (inhibitor of DNA binding 2) (protein, UniProt Q02363 1-134)
chain: T1 sequence
[5]
  binding: binds
[6]
  binding: binds

B2: ID2, endogenous (protein, UniProt Q02363 1-134)
chain: T1 sequence
[7]
  binding: binds
